The list does not hold the whole screen: it is rich in T/C values a quarter to a half above the control, in often repeated tests (any T/C) and in doses without a T/C. Further doses and runs are listed elsewhere. T/C gives the treated animals as a percentage of the vehicle group. Some entries give survivors of the animals treated and no T/C: the source files T/C as zero there, which appears to mark a toxic dose or a test without result, not a measured value. Some survivor counts are full or nearly so, which does not show that the dose was tolerated: the source hardly ever lists a survival T/C far under the control, and the zero likely stands for such cases as well. Survivors were counted at the toxicity check, usually on the fifth day, unless a day is given; later deaths do not show. Schedule codes are those of the source, taken here to give the interval after Q, in days (D) or hours (H), and the number of doses after X. Some entries hold several experiments; the values are given in rising order. For survival time, the PubChem record calls one and a half times the control and up active, and a quarter to a half above the control has no call in these data; cut-offs in other NCI protocols can differ. Some T/C values carry the count of animals alive at the toxicity check (mostly the fifth day); without a count, all were alive then.
Tested on: P388 leukemia ip, CD2F1 mice, survival T/C
Experiment: NCI In Vivo Anticancer Drug Screen. Data for tumor model P388 Leukemia (intraperitoneal) in CD2F1 (CDF1) mice
Conditions: T/C endpoint: median survival time, higher T/C = longer survival
[1] = dose: 0.5 mg/kg/injection, schedule: Q01DX009 (ip), vehicle: saline
[2] = dose: 2.0 mg/kg/injection, schedule: Q01DX009 (ip), vehicle: saline
[3] = dose: 200.0 mg/kg/injection, schedule: Q01DX009 (ip), vehicle: saline
[4] = dose: 240.0 mg/kg/injection, schedule: Q01DX005 (ip), vehicle: saline with Tween-80
[5] = dose: 50.0 mg/kg/injection, schedule: Q01DX009 (ip), vehicle: saline with Tween-80
[6] = dose: 100.0 mg/kg/injection, schedule: Q01DX009 (ip), vehicle: saline with Tween-80
[7] = dose: 200.0 mg/kg/injection, schedule: Q01DX009 (ip), vehicle: saline with Tween-80

## COC(=O)[C@@H]1c2cc3c(c(O)c2[C@@H](OC2OC(C)C(OC)C(C)(OC)C2OC)C[C@]1(C)O)C(=O)c1c(O)cc2c(c1C3=O)O[C@H]1O[C@]2(C)[C@H](O)[C@@H](N(C)C)[C@@H]1O (stereo not given in full)
dose: 0.25 mg/kg/injection, schedule: Q01DX009 (ip), vehicle: saline + alcohol
  T/C: 129 and 133 % of control
dose: 0.25 mg/kg/injection, schedule: Q01DX009 (ip), vehicle: saline
  T/C: 127 % of control
dose: 0.5 mg/kg/injection, schedule: Q01DX009 (ip), vehicle: saline + alcohol
  T/C: 132 and 140 % of control [5 of 6 alive]
[1]
  T/C: 147 % of control
dose: 0.5 mg/kg/injection, schedule: Q04DX003 (ip), vehicle: saline
  T/C: 131 % of control
dose: 1.0 mg/kg/injection, schedule: Q01DX009 (ip), vehicle: saline + alcohol
  survivor count: 6 of 6
dose: 1.0 mg/kg/injection, schedule: Q04DX003 (ip), vehicle: other
  T/C: 138 % of control
dose: 1.0 mg/kg/injection, schedule: Q04DX003 (ip), vehicle: saline
  T/C: 127 % of control
dose: 1.2 mg/kg/injection, schedule: Q04DX003 (ip), vehicle: water
  T/C: 126 % of control
dose: 2.0 mg/kg/injection, schedule: Q01DX009 (ip), vehicle: other
  survivor count: 5 of 6
dose: 2.0 mg/kg/injection, schedule: Q01DX009 (ip), vehicle: saline + alcohol
  survivor count: 4 of 6 and 6 of 6
[2]
  survivor count: 6 of 6
dose: 2.0 mg/kg/injection, schedule: Q01DX010 (ip), vehicle: saline
  survivor count: 6 of 6
dose: 2.0 mg/kg/injection, schedule: Q04DX003 (ip), vehicle: other
  T/C: 138 % of control
dose: 2.0 mg/kg/injection, schedule: Q04DX003 (ip), vehicle: saline
  T/C: 125 % of control
dose: 2.0 mg/kg/injection, schedule: Q04DX003 (ip), vehicle: water
  T/C: 137 % of control
dose: 4.0 mg/kg/injection, schedule: Q01DX010 (ip), vehicle: saline
  survivor count: 0 of 6
dose: 4.0 mg/kg/injection, schedule: Q04DX003 (ip), vehicle: clinical formulation
  survivor count: 8 of 8
dose: 4.0 mg/kg/injection, schedule: Q04DX003 (ip), vehicle: other
  T/C: 138 % of control
dose: 4.0 mg/kg/injection, schedule: Q04DX003 (ip), vehicle: saline
  survivor count: 6 of 6
dose: 250.0 micrograms/kg/injection, schedule: Q01DX009 (ip), vehicle: other
  T/C: 130 % of control
dose: 250.0 micrograms/kg/injection, schedule: Q01DX009 (ip), vehicle: saline
  T/C: 130 % of control
dose: 375.0 micrograms/kg/injection, schedule: Q01DX009 (ip), vehicle: saline
  T/C: 130 % of control
dose: 500.0 micrograms/kg/injection, schedule: Q01DX009 (ip), vehicle: other
  T/C: 146 % of control
dose: 500.0 micrograms/kg/injection, schedule: Q01DX009 (ip), vehicle: saline
  T/C: 137 % of control
dose: 750.0 micrograms/kg/injection, schedule: Q01DX009 (ip), vehicle: saline
  T/C: 144 % of control
dose: 750.0 micrograms/kg/injection, schedule: Q04DX003 (ip), vehicle: saline
  T/C: 130 % of control
dose: 1000.0 micrograms/kg/injection, schedule: Q01DX009 (ip), vehicle: other
  T/C: 128 % of control
dose: 1000.0 micrograms/kg/injection, schedule: Q04DX003 (ip), vehicle: saline
  T/C: 133 % of control
dose: 1500.0 micrograms/kg/injection, schedule: Q04DX003 (ip), vehicle: saline
  T/C: 130 % of control
dose: 2000.0 micrograms/kg/injection, schedule: Q01DX009 (ip), vehicle: other
  survivor count: 6 of 6
dose: 2000.0 micrograms/kg/injection, schedule: Q01DX009 (ip), vehicle: saline
  survivor count: 6 of 6
dose: 2000.0 micrograms/kg/injection, schedule: Q04DX003 (ip), vehicle: saline
  T/C: 130 % of control

## O=C1CC(c2ccccc2)NN1 (stereo not given)
[3]
  survivor count: 4 of 6

## CC[N+](C)(CC)CCl
dose: 30.0 mg/kg/injection, schedule: Q01DX005 (ip), vehicle: saline
  survivor count: 2 of 6
dose: 60.0 mg/kg/injection, schedule: Q01DX005 (ip), vehicle: saline with Tween-80
  survivor count: 0 of 6
dose: 120.0 mg/kg/injection, schedule: Q01DX005 (ip), vehicle: saline with Tween-80
  survivor count: 0 of 6
[4]
  survivor count: 0 of 6

## O=[N+]([O-])c1ccc(N2CCN(c3ccccc3)CC2)c2nonc12
dose: 50.0 mg/kg/injection, schedule: Q01DX009 (ip), vehicle: suspension in saline
  survivor count: 6 of 6

## Cn1ncc2c(NCc3ccccc3)ncnc21
[5]
  survivor count: 6 of 6
[6]
  survivor count: 6 of 6
[7]
  survivor count: 3 of 6

## O=C(Nc1ccc(Br)cn1)c1sc2ccccc2c1Cl
[5]
  survivor count: 6 of 6

## Cc1ccc(NC(=S)NCC2CCCO2)cc1C (stereo not given)
dose: 50.0 mg/kg/injection, schedule: Q01DX009 (ip), vehicle: Klucel (hydroxypropylcellulose) (HPC)
  survivor count: 6 of 6
dose: 100.0 mg/kg/injection, schedule: Q01DX009 (ip), vehicle: Klucel (hydroxypropylcellulose) (HPC)
  survivor count: 5 of 6 and 6 of 6

## NNC(=O)CNc1ccccc1F
dose: 240.0 mg/kg/injection, schedule: Q01DX005 (ip), vehicle: saline
  survivor count: 0 of 6

## [Se]=P(c1ccccc1)(N1CC1)N1CC1
dose: 100.0 mg/kg/injection, schedule: Q04DX003 (ip), vehicle: saline with Tween-80
  survivor count: 1 of 6
dose: 200.0 mg/kg/injection, schedule: Q04DX003 (ip), vehicle: saline with Tween-80
  survivor count: 0 of 6

## CCCCCCCCCCC(O)Cn1ccnc1 (stereo not given)
[5]
  survivor count: 4 of 6
[6]
  survivor count: 1 of 6
[7]
  survivor count: 0 of 6

## ONc1ccccc1C(F)(F)F
[3]
  survivor count: 0 of 6

## N[C@H](C(=O)O)[C@H]1ON=C(Cl)[C@@H]1O
[1]
  T/C: 137 % of control
dose: 1.0 mg/kg/injection, schedule: Q01DX009 (ip), vehicle: saline
  T/C: 144 % of control
[2]
  T/C: 135 and 137 % of control

## NNC(=O)C(=O)Nc1nccs1
[4]
  survivor count: 0 of 6

## CCCCCCCCCCCCC1=C(O)C(=O)C=C(O)C1=O
dose: 100.0 mg/kg/injection, schedule: Q01DX005 (ip), vehicle: saline
  survivor count: 0 of 6
dose: 100.0 mg/kg/injection, schedule: Q01DX005 (ip), vehicle: suspension in saline
  survivor count: 0 of 6
dose: 200.0 mg/kg/injection, schedule: Q01DX005 (ip), vehicle: saline
  survivor count: 0 of 6

## Cc1ccc(S)c(S)c1
dose: 50.0 mg/kg/injection, schedule: Q01DX009 (ip), vehicle: DMSO
  survivor count: 0 of 6
dose: 100.0 mg/kg/injection, schedule: Q01DX009 (ip), vehicle: DMSO
  survivor count: 0 of 6
dose: 200.0 mg/kg/injection, schedule: Q01DX009 (ip), vehicle: DMSO
  survivor count: 0 of 6
[3]
  T/C: 129 % of control [5 of 6 alive]
  survivor count: 4 of 6
dose: 400.0 mg/kg/injection, schedule: Q01DX009 (ip), vehicle: DMSO
  survivor count: 0 of 6
dose: 400.0 mg/kg/injection, schedule: Q01DX009 (ip), vehicle: saline
  survivor count: 2 of 6
dose: 600.0 mg/kg/injection, schedule: Q01DX009 (ip), vehicle: saline
  survivor count: 3 of 6

## C/C=C/c1cc2c(c(=O)o1)C(=O)[C@@H](O)[C@H](C)O2
[6]
  T/C: 132 and 136 % of control
dose: 150.0 mg/kg/injection, schedule: Q01DX009 (ip), vehicle: saline with Tween-80
  T/C: 135 % of control

## O=C(O)C(=Cc1cccc2ccccc12)C(=O)O
dose: 200.0 mg/kg/injection, schedule: Q01DX005 (ip), vehicle: Klucel (hydroxypropylcellulose) (HPC)
  survivor count: 0 of 6

From PubChem BioAssay AID330 (DTP/NCI, 2004)
